No constants are given. Whether binding was seen depends on the method and setting. Some entries that bind do so weakly or less than the wild type.

This assay has as its target T1, CD166 (human (endogenous in human cell lines and monocytes)) (UniProt Q13740).
T1 sequence: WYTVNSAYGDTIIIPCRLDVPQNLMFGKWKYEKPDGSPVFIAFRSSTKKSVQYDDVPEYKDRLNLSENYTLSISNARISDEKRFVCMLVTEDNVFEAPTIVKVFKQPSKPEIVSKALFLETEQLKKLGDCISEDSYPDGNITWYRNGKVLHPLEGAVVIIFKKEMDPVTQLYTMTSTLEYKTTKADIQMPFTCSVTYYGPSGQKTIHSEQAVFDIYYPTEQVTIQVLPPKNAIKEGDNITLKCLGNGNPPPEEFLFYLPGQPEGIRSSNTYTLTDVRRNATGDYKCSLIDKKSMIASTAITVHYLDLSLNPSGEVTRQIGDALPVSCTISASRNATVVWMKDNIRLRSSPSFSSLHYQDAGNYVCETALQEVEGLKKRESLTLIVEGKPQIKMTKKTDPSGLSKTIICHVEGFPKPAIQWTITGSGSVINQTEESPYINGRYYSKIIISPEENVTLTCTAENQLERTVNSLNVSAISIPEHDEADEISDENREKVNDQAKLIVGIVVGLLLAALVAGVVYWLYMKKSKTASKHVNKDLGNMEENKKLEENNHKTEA
In words: flow cytometry on cells; 2 x 10^5 cells of a panel of human cell lines (Caco-2, Hep G2, Raji, K562, HL-60, THP-1, HeLa, E6.1) incubated with 3 ug recombinant sCD6 in binding medium (TBS, 1% BSA, 5 mM Ca2+) for 1 h at 4 C; detected with anti-HIS antibody and Alexa Fluor 647 anti-mouse antibody; only the binder purified.

B1: recombinant soluble extracellular CD6 (sCD6) (domain or fragment, UniProt P30203 25-398)
chain: DQLNTSSAESELWEPGERLPVRLTNGSSSCSGTVEVRLEASWEPACGALWDSRAAEAVCRALGCGGAEAASQLAPPTPELPPPPAAGNTSVAANATLAGAPALLCSGAEWRLCEVVEHACRSDGRRARVTCAENRALRLVDGGGACAGRVEMLEHGEWGSVCDDTWDLEDAHVVCRQLGCGWAVQALPGLHFTPGRGPIHRDQVNCSGAEAYLWDCPGLPGQHYCGHKEDAGAVCSEHQSWRLTGGADRCEGQVEVHFRGVWNTVCDSEWYPSEAKVLCQSLGCGTAVERPKGLPHSLSGRMYYSCNGEELTLSNCSWRFNNSNLCSQSLAARVLCSASRSLHNLSTPEVPASVQTVTIESSVTVKIENKESRE
B1: the binding result is on record as “binds”.
